These results are taken from publication PMC3547847.

Chains of the proteins cited; added tags and fusions are not shown.
UniProt Q9H867: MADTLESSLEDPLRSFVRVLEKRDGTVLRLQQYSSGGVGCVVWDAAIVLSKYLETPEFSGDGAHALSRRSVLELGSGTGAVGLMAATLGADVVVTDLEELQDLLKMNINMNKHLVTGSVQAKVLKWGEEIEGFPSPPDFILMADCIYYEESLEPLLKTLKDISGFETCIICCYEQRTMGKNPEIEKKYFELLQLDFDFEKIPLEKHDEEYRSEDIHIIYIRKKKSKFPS

For assay [1], the target named is T1, Kin17/KIN (bait of an affinity purification) (human) (UniProt O60870).
T1 sequence: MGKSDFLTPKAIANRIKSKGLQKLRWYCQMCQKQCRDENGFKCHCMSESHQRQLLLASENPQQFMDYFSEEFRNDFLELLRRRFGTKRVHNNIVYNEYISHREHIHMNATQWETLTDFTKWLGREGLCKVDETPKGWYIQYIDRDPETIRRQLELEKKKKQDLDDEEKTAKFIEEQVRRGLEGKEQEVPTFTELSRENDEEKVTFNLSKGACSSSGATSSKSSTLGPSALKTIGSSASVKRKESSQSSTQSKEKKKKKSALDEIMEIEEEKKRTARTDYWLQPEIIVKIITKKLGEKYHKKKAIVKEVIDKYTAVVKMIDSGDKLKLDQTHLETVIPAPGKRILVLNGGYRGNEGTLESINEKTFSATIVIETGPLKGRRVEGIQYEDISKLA
Briefly: affinity purification with mass spectrometry; protein affinity purification that targeted Kin17/KIN, soluble fraction; no further detail told.

The target in assay [2] is T2, METTL22 (TAP-tagged) (human) (UniProt Q9BUU2).
T2 sequence: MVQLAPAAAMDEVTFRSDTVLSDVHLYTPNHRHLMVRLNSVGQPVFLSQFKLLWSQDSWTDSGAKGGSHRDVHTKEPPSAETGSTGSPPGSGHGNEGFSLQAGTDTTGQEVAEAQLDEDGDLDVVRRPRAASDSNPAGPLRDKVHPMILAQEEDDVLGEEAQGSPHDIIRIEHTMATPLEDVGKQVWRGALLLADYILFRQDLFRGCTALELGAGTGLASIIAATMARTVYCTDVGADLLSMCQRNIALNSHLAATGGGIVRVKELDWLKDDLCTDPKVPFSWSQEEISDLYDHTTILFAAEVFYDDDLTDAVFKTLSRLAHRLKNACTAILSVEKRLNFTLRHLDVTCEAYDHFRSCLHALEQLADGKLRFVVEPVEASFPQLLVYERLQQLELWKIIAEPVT
Briefly: affinity purification with mass spectrometry; tandem affinity purification of C-terminally TAP-tagged methyltransferases from whole cell extracts of ponasterone A-induced EcR-293 cells; eluates on SDS-PAGE, silver stain, gel slices, LC-MS/MS; interactions scored with Decontaminator (FDR below 10%).

Assay [3] addresses METTL21D (TAP-tagged) (human) (UniProt Q9H867). The assay is described as above.

No constants are given. Whether binding was seen depends on the method and setting. In cells and extracts the contact can be indirect. A yes stands for co-enrichment or nearness to the bait. Other partners may have been found. For part of these data: Sequences can lack the tags named with a protein.

B1: METTL22 (prey in the KIN purification) (enzyme, UniProt Q9BUU2 1-404)
chain: T2 sequence
For B1, the binding entry in assay [1] is “binds”.

B2: KIN (endogenous, prey) (protein, UniProt O60870 1-393)
chain: T1 sequence
modifications: trimethylated lysine at position 135 (detected in the METTL22 purification)
On to B2, for which the binding result in assay [2] is listed as “binds”.

B3: UBXN6/UBXD1 (endogenous, prey) (protein, UniProt Q9BZV1 1-441)
chain: MKKFFQEFKADIKFKSAGPGQKLKESVGEKAHKEKPNQPAPRPPRQGPTNEAQMAAAAALARLEQKQSRAWGPTSQDTIRNQVRKELQAEATVSGSPEAPGTNVVSEPREEGSAHLAVPGVYFTCPLTGATLRKDQRDACIKEAILLHFSTDPVAASIMKIYTFNKDQDRVKLGVDTIAKYLDNIHLHPEEEKYRKIKLQNKVFQERINCLEGTHEFFEAIGFQKVLLPAQDQEDPEEFYVLSETTLAQPQSLERHKEQLLAAEPVRAKLDRQRRVFQPSPLASQFELPGDFFNLTAEEIKREQRLRSEAVERLSVLRTKAMREKEEQRGLRKYNYTLLRVRLPDGCLLQGTFYARERLGAVYGFVREALQSDWLPFELLASGGQKLSEDENLALNECGLVPSALLTFSWDMAVLEDIKAAGAEPDSILKPELLSAIEKLL
Consider B3, for which the binding entry in assay [3] is recorded as “binds”.
